{
  "sequences": {"note": "Sequences of proteins named here, by UniProt entry; tags and fusion partners are left off.", "UniProt P42336, whole entry": "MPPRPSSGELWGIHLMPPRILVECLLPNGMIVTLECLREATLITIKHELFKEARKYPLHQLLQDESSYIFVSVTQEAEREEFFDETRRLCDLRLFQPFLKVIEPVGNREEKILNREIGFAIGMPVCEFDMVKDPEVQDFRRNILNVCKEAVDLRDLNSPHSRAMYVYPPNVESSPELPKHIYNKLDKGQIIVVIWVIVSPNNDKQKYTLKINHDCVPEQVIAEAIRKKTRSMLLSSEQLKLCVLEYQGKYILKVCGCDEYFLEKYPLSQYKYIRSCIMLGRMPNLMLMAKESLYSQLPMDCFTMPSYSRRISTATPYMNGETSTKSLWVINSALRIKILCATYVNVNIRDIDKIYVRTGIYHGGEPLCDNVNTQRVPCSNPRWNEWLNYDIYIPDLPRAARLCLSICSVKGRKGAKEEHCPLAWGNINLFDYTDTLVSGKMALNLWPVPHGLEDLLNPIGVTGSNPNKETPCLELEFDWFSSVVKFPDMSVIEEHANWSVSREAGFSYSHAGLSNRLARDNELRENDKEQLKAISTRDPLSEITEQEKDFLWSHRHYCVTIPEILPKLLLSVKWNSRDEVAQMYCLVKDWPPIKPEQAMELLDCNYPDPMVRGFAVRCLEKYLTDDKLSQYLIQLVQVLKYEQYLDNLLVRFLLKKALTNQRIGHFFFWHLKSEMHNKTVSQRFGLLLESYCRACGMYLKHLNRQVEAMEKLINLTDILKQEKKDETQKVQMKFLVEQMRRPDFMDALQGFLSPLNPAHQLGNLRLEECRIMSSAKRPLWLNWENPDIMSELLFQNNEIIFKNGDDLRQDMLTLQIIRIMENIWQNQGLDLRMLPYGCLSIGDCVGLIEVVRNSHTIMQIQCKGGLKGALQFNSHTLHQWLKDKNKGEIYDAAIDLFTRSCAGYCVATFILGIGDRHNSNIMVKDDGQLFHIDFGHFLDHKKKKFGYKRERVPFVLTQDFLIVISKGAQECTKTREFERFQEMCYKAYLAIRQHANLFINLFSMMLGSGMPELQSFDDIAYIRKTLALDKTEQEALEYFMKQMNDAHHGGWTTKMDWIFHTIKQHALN"},
  "source": "patent US9090601B2",
  "about": "“Thiazole derivatives” (Millennium Pharmaceuticals, Inc., priority 2009, dated 2015)",
  "molecular_target": "T1, PI3Kalpha (Homo sapiens, UniProt P42336)",
  "T1 construct": "His (N); host or cells: baculovirus expression system (insect cells)",
  "assay": "PI3K alpha enzyme assay (HTRF)",
  "assay_type": "biochemical",
  "details": "PI3Kalpha 0.4875 nM, ATP 25 uM, di-C8 PI(4,5)P2 3.5 uM, 30 min room temperature; read-out: IC50 (inhibit PI3Kalpha)",
  "description": "0.5 uL compounds in DMSO are added to wells of a 384 well microtitre plate (Corning 3575). At room temperature: 10 ul PI3K reaction buffer (50 mM Hepes, 5 mM DTT, 150 mM NaCl, 10 mM beta-glycerophosphate, 10 mM MgCl2, 0.25 mM sodium cholate and 0.001% CHAPS, pH 7.00) containing ATP (25 uM, Promega) is added followed immediately by 10 ul PI3K reaction buffer containing di-C8 PI(4,5)P2 (3.5 uM, CellSignals) and PI3Kalpha (0.4875 nM, Millennium Protein Sciences Group) and the mixture is incubated with shaking at room temperature for 30 minutes. Then 5 ul PI3K stop mix (50 mM Hepes, 5 mM DTT, 150 mM NaCl, 0.01% Tween-20, 15 mM EDTA and 25 nM biotin-PI(3,4,5)P3 (Echelon) is added to quench the reaction followed immediately by addition of 5 ul HTRF detection mix (50 mM Hepes, 5 mM DTT, 150 mM NaCl, 0.01% Tween-20, 40 mM KF, 10 nM GST:GRP-1 PH domain (Millennium Protein Sciences Group), 15 nM Streptavidin-XL (CisBio) and 0.375 nM anti-GST Eu++ antibody (CisBio) at pH 7.00). The plates are then incubated for 1 hour at room temperature with shaking and then read on a BMG PheraStar Plus reader.",
  "note": "Some entries share one result that the patent states for a list of compounds.",
  "data": [
    {"substance": "N-(4-(4-(1-methyl-3-(trifluoromethyl)-1H-pyrazol-4-yl)-5-(1-((2-(trimethylsilyl)ethoxy)methyl)-1H-imidazol-2-yl)thiazol-2-yl)pyridin-2-yl)acetamide [Example 6-C]", "values": [
      {"measurement": "IC50", "result": "< 100", "unit": "nM"}
    ]}
  ]
}
